Laboratory results from patent publication US11083770B2, “Medical preparation and method for enhancing tissue oxygenation in case of diabetic foot” (priority 2017, dated 2021).
Not every detail of the peptide structures is certain; ends, links or a residue may be inferred. Peptide text beside a SMILES is read from it.

Tests used:
trophic lesions = test: Lesion surface healing stage, non-insulin-dependent diabetes mellitus; type: in vivo, human
diabetic foot [1] = test: Clinical signs of diabetic foot syndrome, non-insulin-dependent diabetes mellitus; type: in vivo, human; settings: for Pigmentation, clinical sign score / Dryness of skin, clinical sign score / Fatigability of feet, clinical sign score / Tactile sensitivity (reduced), clinical sign score: 1 absent to 4 severe
reticulocytes = test: Reticulocytes content in peripheral blood, streptozotocin-induced diabetes mellitus; type: in vivo, Wistar rats; settings: for Reticulocytes content: experimental group
soft tissue lesion = test: Soft tissue lesion healing against streptozotocin-induced diabetes mellitus; type: in vivo, Wistar rats
skin tissues = test: Histological study of skin tissues, streptozotocin-induced diabetes mellitus; type: in vivo, Wistar rats; settings: 11th week
diabetic foot [2] = test: Clinical signs of diabetic foot syndrome, insulin-dependent diabetes mellitus; type: in vivo, human
[3] = Glucose concentration in peripheral blood, streptozotocin-induced diabetes mellitus; type: in vivo, Wistar rats; settings: experimental group
[4] = main group n = 15, 21st day of study
[5] = main group n = 15, after treatment
[6] = main group n = 15, before treatment
[7] = week 5 (diabetic, before dipeptide)
[8] = experimental group n = 15, week 5 (before dipeptide)
[9] = experimental group n = 15, week 9
[10] = experimental group n = 15, week 11
[11] = main group n = 18, after treatment, 1 absent to 4 severe
[12] = main group n = 18, before treatment, 1 absent to 4 severe

In the case of N[C@@H](CCC(=O)O)C(=O)N[C@@H](Cc1c[nH]c2ccccc12)C(=O)O [L-Glu-L-Trp, L-glutamic-L-tryptophan acid] (H-Glu-Trp-OH; N-terminus and C-terminus assumed), the “Full epithelization of lesion surface, main group over control” value (trophic lesions; by the end of the study) is reported as 5 times, the “Number of patients with full epithelization” value (trophic lesions; [4]) is reported as 11 and the “Number of patients with initial epithelization signs” value (trophic lesions; [4]) is reported as 3. The “Number of patients with signs of granulation” value (trophic lesions; [4]) was 1, the “Patients with full epithelization of lesion surface, percent” value (trophic lesions; [4]) was 73.3% and the “Patients with initial epithelization signs, percent” value (trophic lesions; [4]) was 20.0%. The “Patients with signs of granulation, percent” value (trophic lesions; [4]) was 6.7%, the “Pigmentation, clinical sign score” value (diabetic foot [1]; main group n = 15, after treatment (200.0 μg i.m. 2 times a day, 20 days)) was 3.0 ± 0.25 points and the “Dryness of skin, clinical sign score” value (diabetic foot [1]; [5]) was 2.9 ± 0.29 points. The “Fatigability of feet, clinical sign score” value (shortened to “Fatigability of feet”) (diabetic foot [1]; [5]) was 2.7 ± 0.35 points, the “Tactile sensitivity (reduced), clinical sign score” value (from here on “Tactile sensitivity (reduced)”) (diabetic foot [1]; [5]) was 2.5 ± 0.20 points and the “Dryness of skin, clinical sign score” value (diabetic foot [1]; [6]) was 3.9 ± 0.30 points. The “Fatigability of feet” value (diabetic foot [1]; [6]) was 3.9 ± 0.31 points, the “Pigmentation, clinical sign score” value (diabetic foot [1]; [6]) was 3.0 ± 0.25 points and the “Tactile sensitivity (reduced)” value (diabetic foot [1]; [6]) was 3.7 ± 0.22 points. For the same compound, the “Clinical signs of “diabetic foot” syndrome” value (diabetic foot [1]; non-insulin-dependent diabetes mellitus patients) was “reliably reduced”, the “Level of reticulocytes compared with control” value (reticulocytes; after 11 weeks) was “reliably lower than in the control” and the Reticulocytes content (reticulocytes; week 0 (initial, before dipeptide)) was 14.9 ± 1.7 ‰. For the same compound, the Reticulocytes content (reticulocytes; [7]) was 20.4 ± 2.5 ‰, the Reticulocytes content (reticulocytes; week 9, i.m. 100 μg (1.0 mg) per injection daily for 10 days) was 26.6 ± 6.2 ‰ and the Reticulocytes content (reticulocytes; week 11, i.m. 100 μg (1.0 mg) per injection daily for 10 days) was 30.1 ± 5.4 ‰. The “Full epithelization of lesions, experimental group over control group” value (soft tissue lesion; 11th week) was 3.2 times, the “Number of animals with full tissue epithelization” value (soft tissue lesion; [8]) was 0 and the “Number of animals with signs of tissue granulation” value (from here on “Number … of tissue granulation”) (soft tissue lesion; [8]) was 0. The “Animals with full tissue epithelization, percent” value (soft tissue lesion; [9]) was “(33.3%)”, the “Animals with signs of tissue granulation, percent” value (soft tissue lesion; [9]) was “(26.7%)” and the “Number of animals with full tissue epithelization” value (soft tissue lesion; [9]) was 5. The “Number … of tissue granulation” value (soft tissue lesion; [9]) was 4, the “Animals with full tissue epithelization, percent” value (soft tissue lesion; [10]) was “(86.7%)” and the “Number of animals with full tissue epithelization” value (soft tissue lesion; [10]) was 13. The “Number … of tissue granulation” value (soft tissue lesion; [10]) was 0, the “Signs of microangiopathy (productive capillaritis, perivascular sclerosis, sclerosis of arteriolar walls) compared with control” value (skin tissues) was “less pronounced” and the Perivascular lymphohistiocytic infiltration (skin tissues; control: severe to moderate) was “mild”. For the same compound, the “Clinical signs of “diabetic foot” syndrome” value (diabetic foot [2]; insulin-dependent diabetes mellitus patients) was “reliably reduced”, the “Pigmentation, clinical sign score” value (diabetic foot [2]; main group n = 18, after treatment (200.0 μg i.m. 2 times a day, 20 days), 1 absent to 4 severe) was 2.1 ± 0.25 points and the “Dryness of skin, clinical sign score” value (diabetic foot [2]; [11]) was 2.5 ± 0.28 points. The “Fatigability of feet” value (diabetic foot [2]; [11]) was 2.6 ± 0.30 points, the “Tactile sensitivity (reduced)” value (diabetic foot [2]; [11]) was 2.4 ± 0.22 points and the “Dryness of skin, clinical sign score” value (diabetic foot [2]; [12]) was 3.1 ± 0.25 points. For the same compound, the “Fatigability of feet” value (diabetic foot [2]; [12]) was 3.4 ± 0.23 points, the “Tactile sensitivity (reduced)” value (diabetic foot [2]; [12]) was 3.2 ± 0.29 points and the “Pigmentation, clinical sign score” value (diabetic foot [2]; main group n = 18, before treatment, 1 absent, 2 mild, 3 pronounced, 4 severe) was 2.1 ± 0.25 points. The Glucose concentration ([3]; week 0 (initial, before streptozotocin and before dipeptide)) was 5.7 ± 1.2 mmol/L, the Glucose concentration [3, 7] was 24.4 ± 1.9 mmol/L and the Glucose concentration ([3]; week 9, i.m. 100 μg (1.0 mg) per injection daily for 10 days from 72 h after lesion at week 5) was 15.9 ± 2.2 mmol/L. The Glucose concentration ([3]; week 11, i.m. 100 μg (1.0 mg) per injection daily for 10 days from 72 h after lesion at week 5) was 13.4 ± 1.5 mmol/L.
